From the supplement of paper PMC10849652
Some of the results follow.

By UniProt entry, the sequences of proteins in these tests, tags left out. Where a name states a change or a piece, a line headed by the entry shows the natural chain unless it says otherwise.
UniProt P26358: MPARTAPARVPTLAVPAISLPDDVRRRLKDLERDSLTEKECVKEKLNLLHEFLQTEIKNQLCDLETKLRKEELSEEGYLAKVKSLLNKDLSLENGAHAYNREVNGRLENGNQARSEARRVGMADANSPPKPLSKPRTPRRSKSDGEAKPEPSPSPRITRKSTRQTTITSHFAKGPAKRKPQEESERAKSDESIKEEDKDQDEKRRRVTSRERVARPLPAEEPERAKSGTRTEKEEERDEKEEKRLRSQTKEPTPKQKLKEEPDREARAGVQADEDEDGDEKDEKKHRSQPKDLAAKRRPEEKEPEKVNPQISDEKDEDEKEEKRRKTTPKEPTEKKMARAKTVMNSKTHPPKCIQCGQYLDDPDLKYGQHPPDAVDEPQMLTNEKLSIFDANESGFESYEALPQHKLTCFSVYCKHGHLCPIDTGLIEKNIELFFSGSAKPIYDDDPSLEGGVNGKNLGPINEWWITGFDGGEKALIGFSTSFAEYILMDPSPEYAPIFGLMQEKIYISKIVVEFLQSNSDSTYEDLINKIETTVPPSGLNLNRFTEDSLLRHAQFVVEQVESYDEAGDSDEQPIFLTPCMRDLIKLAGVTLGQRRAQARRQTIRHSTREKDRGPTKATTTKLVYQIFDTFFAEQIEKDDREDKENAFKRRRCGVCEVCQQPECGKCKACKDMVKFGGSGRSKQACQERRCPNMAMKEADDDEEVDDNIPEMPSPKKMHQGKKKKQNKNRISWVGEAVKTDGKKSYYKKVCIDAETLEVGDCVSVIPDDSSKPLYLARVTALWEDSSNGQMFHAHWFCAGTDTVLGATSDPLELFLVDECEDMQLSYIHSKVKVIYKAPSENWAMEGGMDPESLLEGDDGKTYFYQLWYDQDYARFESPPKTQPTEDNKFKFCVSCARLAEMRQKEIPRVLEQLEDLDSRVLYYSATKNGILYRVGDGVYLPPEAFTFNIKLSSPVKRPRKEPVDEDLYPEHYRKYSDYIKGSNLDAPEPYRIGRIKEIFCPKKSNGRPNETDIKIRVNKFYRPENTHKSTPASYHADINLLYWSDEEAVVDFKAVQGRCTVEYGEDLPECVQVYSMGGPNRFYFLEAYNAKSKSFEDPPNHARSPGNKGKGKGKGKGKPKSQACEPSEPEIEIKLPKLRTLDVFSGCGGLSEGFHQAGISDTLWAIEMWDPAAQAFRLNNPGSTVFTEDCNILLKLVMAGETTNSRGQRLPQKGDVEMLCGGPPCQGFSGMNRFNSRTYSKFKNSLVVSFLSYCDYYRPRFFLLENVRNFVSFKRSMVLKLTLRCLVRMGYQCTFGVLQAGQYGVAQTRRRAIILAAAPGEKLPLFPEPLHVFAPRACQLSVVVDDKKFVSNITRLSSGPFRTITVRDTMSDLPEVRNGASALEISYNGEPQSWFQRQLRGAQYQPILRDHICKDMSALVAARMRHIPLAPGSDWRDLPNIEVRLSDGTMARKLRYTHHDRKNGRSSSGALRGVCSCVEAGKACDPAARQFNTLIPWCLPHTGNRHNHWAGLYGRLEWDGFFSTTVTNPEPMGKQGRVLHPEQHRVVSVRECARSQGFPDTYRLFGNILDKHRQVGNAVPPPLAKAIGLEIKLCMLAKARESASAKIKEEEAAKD
UniProt Q7L2E3: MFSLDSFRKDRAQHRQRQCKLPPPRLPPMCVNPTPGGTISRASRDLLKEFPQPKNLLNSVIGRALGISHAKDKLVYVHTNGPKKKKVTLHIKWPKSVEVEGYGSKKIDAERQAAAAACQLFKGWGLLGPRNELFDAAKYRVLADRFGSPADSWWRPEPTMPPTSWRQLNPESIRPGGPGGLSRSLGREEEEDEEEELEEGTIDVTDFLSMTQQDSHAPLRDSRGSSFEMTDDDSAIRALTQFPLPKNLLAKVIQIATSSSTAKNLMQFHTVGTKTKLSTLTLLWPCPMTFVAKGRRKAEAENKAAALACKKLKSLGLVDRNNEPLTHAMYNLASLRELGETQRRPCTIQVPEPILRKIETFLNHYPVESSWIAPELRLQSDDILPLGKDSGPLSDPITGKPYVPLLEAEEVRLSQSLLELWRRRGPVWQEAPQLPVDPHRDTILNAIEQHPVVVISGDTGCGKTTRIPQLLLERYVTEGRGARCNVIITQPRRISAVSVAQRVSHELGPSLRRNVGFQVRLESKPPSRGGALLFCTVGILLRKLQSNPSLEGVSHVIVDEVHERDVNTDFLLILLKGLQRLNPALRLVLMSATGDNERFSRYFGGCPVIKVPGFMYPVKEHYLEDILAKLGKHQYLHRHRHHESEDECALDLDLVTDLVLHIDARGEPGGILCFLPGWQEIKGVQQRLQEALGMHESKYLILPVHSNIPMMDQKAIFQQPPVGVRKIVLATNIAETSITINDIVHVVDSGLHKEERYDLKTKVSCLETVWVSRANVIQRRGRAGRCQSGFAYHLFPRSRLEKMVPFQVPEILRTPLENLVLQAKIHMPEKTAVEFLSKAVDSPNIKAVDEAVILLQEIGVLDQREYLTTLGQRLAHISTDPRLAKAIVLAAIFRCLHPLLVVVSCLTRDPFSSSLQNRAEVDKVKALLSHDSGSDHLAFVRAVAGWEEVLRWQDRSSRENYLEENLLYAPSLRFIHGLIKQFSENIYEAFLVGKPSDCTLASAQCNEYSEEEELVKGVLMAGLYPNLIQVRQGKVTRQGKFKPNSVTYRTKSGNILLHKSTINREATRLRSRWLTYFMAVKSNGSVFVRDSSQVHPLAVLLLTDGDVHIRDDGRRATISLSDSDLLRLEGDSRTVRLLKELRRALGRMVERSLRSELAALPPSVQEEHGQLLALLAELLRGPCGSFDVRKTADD
UniProt P36957: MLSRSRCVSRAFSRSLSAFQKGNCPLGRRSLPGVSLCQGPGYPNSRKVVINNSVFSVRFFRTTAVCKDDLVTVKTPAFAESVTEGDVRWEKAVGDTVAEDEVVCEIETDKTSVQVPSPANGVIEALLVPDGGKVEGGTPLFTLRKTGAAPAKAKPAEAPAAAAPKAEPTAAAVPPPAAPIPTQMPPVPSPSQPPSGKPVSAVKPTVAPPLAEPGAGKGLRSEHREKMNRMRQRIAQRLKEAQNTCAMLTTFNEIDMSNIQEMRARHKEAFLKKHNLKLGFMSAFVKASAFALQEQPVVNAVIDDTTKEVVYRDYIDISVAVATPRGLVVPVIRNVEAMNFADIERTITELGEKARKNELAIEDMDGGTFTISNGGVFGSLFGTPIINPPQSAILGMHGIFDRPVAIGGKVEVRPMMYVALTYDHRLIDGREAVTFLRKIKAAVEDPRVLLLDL
UniProt Q9UPY3: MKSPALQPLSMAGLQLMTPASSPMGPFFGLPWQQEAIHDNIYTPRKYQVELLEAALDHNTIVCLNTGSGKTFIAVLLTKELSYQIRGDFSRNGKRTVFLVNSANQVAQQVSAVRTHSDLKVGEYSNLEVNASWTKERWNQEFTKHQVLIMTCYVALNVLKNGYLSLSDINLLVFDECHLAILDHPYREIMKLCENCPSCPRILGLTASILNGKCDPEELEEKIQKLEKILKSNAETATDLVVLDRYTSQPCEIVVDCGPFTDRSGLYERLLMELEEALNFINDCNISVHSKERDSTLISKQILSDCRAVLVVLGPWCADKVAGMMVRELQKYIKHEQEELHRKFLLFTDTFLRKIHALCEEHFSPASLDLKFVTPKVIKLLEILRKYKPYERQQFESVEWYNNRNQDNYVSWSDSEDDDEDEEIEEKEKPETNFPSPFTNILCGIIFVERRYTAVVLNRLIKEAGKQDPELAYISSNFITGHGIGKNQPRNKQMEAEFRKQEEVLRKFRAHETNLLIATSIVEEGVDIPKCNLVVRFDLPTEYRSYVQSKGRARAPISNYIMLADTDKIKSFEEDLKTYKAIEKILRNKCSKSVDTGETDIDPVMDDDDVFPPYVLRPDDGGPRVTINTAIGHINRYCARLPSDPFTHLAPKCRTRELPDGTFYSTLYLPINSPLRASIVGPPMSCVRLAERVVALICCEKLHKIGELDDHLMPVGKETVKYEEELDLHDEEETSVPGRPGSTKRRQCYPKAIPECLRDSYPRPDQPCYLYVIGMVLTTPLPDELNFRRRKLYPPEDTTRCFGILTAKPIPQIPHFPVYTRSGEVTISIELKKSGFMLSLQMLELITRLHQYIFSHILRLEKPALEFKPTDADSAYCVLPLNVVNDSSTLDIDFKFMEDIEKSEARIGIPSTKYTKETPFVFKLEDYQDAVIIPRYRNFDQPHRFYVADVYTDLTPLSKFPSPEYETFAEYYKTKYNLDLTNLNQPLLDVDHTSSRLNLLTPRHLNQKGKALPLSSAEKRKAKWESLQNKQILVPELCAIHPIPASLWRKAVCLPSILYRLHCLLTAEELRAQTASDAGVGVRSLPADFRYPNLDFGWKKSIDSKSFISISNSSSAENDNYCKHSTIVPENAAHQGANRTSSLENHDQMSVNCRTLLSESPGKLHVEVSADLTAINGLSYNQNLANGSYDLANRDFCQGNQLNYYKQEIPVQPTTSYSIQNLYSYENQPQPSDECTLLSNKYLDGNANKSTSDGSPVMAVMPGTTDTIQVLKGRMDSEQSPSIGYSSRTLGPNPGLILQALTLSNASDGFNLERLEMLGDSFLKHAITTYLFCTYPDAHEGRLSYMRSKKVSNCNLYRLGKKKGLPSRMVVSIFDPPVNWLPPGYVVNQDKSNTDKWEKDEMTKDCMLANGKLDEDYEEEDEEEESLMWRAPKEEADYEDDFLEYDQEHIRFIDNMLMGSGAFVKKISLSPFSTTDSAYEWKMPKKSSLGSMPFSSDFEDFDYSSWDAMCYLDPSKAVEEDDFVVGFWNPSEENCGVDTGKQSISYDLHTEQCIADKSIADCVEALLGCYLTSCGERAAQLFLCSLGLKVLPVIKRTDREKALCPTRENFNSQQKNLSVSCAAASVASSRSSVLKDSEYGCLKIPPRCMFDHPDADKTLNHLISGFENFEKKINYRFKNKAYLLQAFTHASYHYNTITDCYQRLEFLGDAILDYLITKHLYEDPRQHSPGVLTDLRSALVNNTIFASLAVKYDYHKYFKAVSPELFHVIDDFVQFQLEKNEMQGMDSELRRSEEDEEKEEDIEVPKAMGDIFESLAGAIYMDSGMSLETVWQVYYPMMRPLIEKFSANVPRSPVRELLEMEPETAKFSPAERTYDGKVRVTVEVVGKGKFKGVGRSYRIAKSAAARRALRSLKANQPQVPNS
UniProt Q86YN1: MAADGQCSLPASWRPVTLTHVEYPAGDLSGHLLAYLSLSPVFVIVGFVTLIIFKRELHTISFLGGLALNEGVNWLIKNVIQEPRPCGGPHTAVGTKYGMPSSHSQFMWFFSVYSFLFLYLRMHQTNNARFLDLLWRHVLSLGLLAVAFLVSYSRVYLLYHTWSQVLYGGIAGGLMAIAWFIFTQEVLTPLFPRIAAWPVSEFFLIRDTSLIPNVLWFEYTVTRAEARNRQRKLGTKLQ
UniProt O75061: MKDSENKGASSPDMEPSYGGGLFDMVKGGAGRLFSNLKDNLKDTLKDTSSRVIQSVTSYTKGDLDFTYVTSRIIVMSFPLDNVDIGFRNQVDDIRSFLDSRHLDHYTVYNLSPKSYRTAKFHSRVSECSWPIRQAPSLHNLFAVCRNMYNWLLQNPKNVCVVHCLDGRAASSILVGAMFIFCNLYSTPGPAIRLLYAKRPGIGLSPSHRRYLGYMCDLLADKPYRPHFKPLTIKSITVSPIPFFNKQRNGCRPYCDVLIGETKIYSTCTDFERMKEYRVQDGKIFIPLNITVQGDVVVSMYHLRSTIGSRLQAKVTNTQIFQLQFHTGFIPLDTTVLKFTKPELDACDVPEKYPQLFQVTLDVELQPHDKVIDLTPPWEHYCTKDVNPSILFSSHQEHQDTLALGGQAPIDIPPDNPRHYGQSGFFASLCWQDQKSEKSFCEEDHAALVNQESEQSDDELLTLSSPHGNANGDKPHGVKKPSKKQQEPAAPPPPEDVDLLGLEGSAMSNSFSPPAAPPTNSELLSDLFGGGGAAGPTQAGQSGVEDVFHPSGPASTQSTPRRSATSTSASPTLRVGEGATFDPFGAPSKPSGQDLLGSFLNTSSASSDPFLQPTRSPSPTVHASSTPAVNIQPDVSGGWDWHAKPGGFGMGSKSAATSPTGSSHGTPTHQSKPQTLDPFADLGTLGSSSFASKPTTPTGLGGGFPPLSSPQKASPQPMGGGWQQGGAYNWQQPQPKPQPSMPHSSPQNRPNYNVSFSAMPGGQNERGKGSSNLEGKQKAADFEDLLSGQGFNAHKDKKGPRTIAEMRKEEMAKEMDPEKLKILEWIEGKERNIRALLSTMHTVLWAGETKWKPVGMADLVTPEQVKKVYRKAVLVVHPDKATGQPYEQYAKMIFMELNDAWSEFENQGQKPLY

Key:
Experiment in all cases: log2 fold change, soluble protein after heating vs DMSO (PISA); higher = thermal stabilisation; K562 lysate, 10 uM; active = over 0.2 and 3.5 SD of the protein, either way, in both replicates (recomputed)
[1] = compound: CCCS(=O)(=O)Nc1ccc(F)c(C(=O)c2c[nH]c3ncc(-c4ccc(Cl)cc4)cc23)c1F [vemurafenib]
Method in brief: (§1)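 Quantification was by TMTpro 16plex LC-MS/MS with equalised channel sums, applied to the supernatant after 21,000xg for 90 min. Samples were crude K562 extract at 1 mg/mL protein in PBS pH 7.4 with 1 mM MgCl2, treated with 10 μM compound for 30 min, heated for 3 min across 48°C-58°C, pooled and brought to 0.5% NP-40 at 4°C. Values are log-two fold changes in thermal stability relative to solvent controls, from duplicates.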

[2] = compound: CCCS(=O)(=O)Nc1ccc(F)c(C(=O)c2c[nH]c3ncc(Cl)cc23)c1F
Method in brief: as §1

[3] = compound: CCN(CCCOc1ccc2c(Nc3cc(CC(=O)Nc4cccc(F)c4)[nH]n3)ncnc2c1)CCOP(=O)(O)O [barasertib]
Method in brief: as §1

[4] = compound: CC[C@@H]1C(=O)N(C)c2cnc(Nc3ccc(C(=O)NC4CCN(C)CC4)cc3OC)nc2N1C1CCCC1
Method in brief: as §1

[5] = compound: CC[C@@H]1C(=O)N(C)c2cnc(Nc3ccc(C(=O)N[C@H]4CC[C@H](N5CCN(CC6CC6)CC5)CC4)cc3OC)nc2N1C(C)C [volasertib]
Method in brief: as §1

[6] = compound: CCn1c(C(=O)N(C2CC2)C2CC2)cc2c3c(ncn3C)c(Nc3cc(C)n(C)n3)nc21
Method in brief: as §1

[7] = compound: CCn1cc(-c2ccnc3[nH]c(-c4cccc(CN(C)C)c4)cc23)c(-c2ccc(NC(=O)N(C)C)cc2)n1
Method in brief: as §1

[8] = compound: CN1CCC(CNc2ccc3ncc(-c4cccc(OC(F)(F)F)c4)n3n2)CC1
Method in brief: as §1

[9] = compound: CN1CCN(CCOc2cc(OC3CCOCC3)c3c(Nc4c(Cl)ccc5c4OCO5)ncnc3c2)CC1 [saracatinib]
Method in brief: as §1

[10] = compound: CN1CCN(c2nc(C3=C(c4c[nH]c5ccccc45)C(=O)NC3=O)c3ccccc3n2)CC1 [sotrastaurin]
Method in brief: as §1

[11] = compound: CN1CC[C@H](c2c(O)cc(O)c3c(=O)cc(-c4ccccc4Cl)oc23)[C@H](O)C1 [alvocidib]
Method in brief: as §1

[12] = compound: CN1CCc2c(c3ccccc3n2Cc2ccc(C(=O)NO)cc2)C1 [Tubastatin A]
Method in brief: as §1

[13] = compound: CNC(=O)C1=CC=CC=C1NC2=NC(=NC=C2Cl)NC3=C(C=C(C=C3)N4CCOCC4)OC
Method in brief: as §1

[14] = compound: CNC(=O)c1ccc(Nc2ncc(C(F)(F)F)c(NCc3nccnc3N(C)S(C)(=O)=O)n2)cc1 [defactinib]
Method in brief: as §1

[15] = compound: CNc1nc(-c2ccc3c(N)n[nH]c3c2)cc(N2C[C@@H](C(=O)NC3CCCCC3)CC[C@H]2C)n1
Method in brief: as §1

[16] = compound: COC(=O)N[C@@H](C)CNc1nccc(-c2cn(C(C)C)nc2-c2cc(Cl)cc(NS(C)(=O)=O)c2F)n1 [encorafenib]
Method in brief: as §1

[17] = compound: COC(=O)[C@H](CCSC)NC(=O)C1=C(C=C(C=C1)NC[C@H](CS)N)C2=CC=CC=C2
Method in brief: as §1

[18] = compound: COc1cc(Nc2ncc3c(n2)-c2ccc(Cl)cc2C(c2c(F)cccc2OC)=NC3)ccc1C(=O)O [alisertib]
Method in brief: as §1

[19] = compound: COc1cc2nc(-c3cc(F)ccc3O)nc(N[C@@H]3CNC[C@H]3C(C)(C)O)c2cc1OC
Method in brief: as §1

[20] = compound: COc1cc2ncnc(Nc3ccc(F)c(Cl)c3)c2cc1OCCCN1CCOCC1 [gefitinib]
Method in brief: as §1

Measured: log2 fold change

DOHH (UniProt Q9BU89)
inactive: [1] -0.019 | [2] 0.016 | [3] 0.088 | [4] 0.033 | [5] 0.058 | [6] -0.034 | [7] -0.081 | [8] -0.087 | [9] -0.027 | [10] -0.053 | [11] 0.041 | [12] 0.002 | [13] 0.037 | [14] 0.077 | [15] 0.082 | [16] 0.041 | [17] 0.051 | [18] 0.002 | [19] -0.051 | [20] -0.089

DNMT1 isoform 2 (UniProt P26358)
inactive: [1] -0.027 | [2] 0.01 | [3] -0.014 | [4] 0 | [5] 0.012 | [6] 0.02 | [7] 0.02 | [8] -0.009 | [9] -0.002 | [10] 0.011 | [11] 0.011 | [12] 0.002 | [13] -0.005 | [14] 0.006 | [15] -0.036 | [16] -0.002 | [17] -0.01 | [18] 0.002 | [19] -0.009 | [20] -0.008

DNAJA2 (UniProt O60884)
inactive: [1] -0.028 | [2] -0.026 | [3] -0.003 | [4] 0.014 | [5] -0.006 | [6] 0.002 | [7] 0.12 | [8] -0.022 | [9] 0.008 | [10] -0.009 | [11] 0 | [12] 0.001 | [13] 0.009 | [14] 0.01 | [15] -0.002 | [16] 0.029 | [17] -0.064 | [18] 0.046 | [19] 0.002 | [20] -0.02

DNAJB4 (UniProt Q9UDY4)
inactive: [1] 0.005 | [2] -0.007 | [3] 0.072 | [4] 0.012 | [5] -0.112 | [6] 0.04 | [7] 0.011 | [8] -0.013 | [9] 0.011 | [10] -0.019 | [11] -0.008 | [12] -0.073 | [13] 0.033 | [14] 0.006 | [15] -0.036 | [16] 0.109 | [17] -0.002 | [18] 0.035 | [19] -0.042 | [20] 0.009

DHX30 isoform 2 (UniProt Q7L2E3)
inactive: [1] 0.01 | [2] 0.016 | [3] -0.039 | [4] 0.014 | [5] -0.024 | [6] 0.015 | [7] 0.017 | [8] -0.029 | [9] 0.001 | [10] 0.016 | [11] -0.007 | [12] -0.037 | [13] 0.02 | [14] 0.012 | [15] 0.002 | [16] 0.03 | [17] -0.154 | [18] -0.018 | [19] -0.011 | [20] 0

DLST (UniProt P36957)
inactive: [1] 0.033 | [2] 0.001 | [3] -0.003 | [4] 0.05 | [5] 0.016 | [6] 0.017 | [7] -0.01 | [8] 0.049 | [9] -0.009 | [10] 0.013 | [11] -0.004 | [12] 0.017 | [13] -0.021 | [14] 0.023 | [15] -0.011 | [16] -0.008 | [17] 0.019 | [18] 0.001 | [19] 0.01 | [20] -0.009

DNAJA1 (UniProt P31689)
inactive: [1] 0.007 | [2] -0.025 | [3] -0.013 | [4] -0.002 | [5] 0 | [6] -0.003 | [7] -0.166 | [8] 0.043 | [9] 0.035 | [10] 0.042 | [11] -0.007 | [12] 0.007 | [13] -0.007 | [14] -0.006 | [15] 0 | [16] 0.024 | [17] -0.115 | [18] 0.017 | [19] 0.004 | [20] 0.009

DICER1 (UniProt Q9UPY3)
inactive: [1] -0.002 | [2] 0.05 | [3] 0.01 | [4] 0.003 | [5] -0.068 | [6] 0.021 | [7] 0.275 | [8] 0.036 | [9] 0.005 | [10] -0.018 | [11] -0.032 | [12] -0.172 | [13] 0.112 | [14] 0.046 | [15] -0.003 | [16] 0.037 | [17] 0.039 | [18] 0.012 | [19] -0.022 | [20] -0.027

DMD (UniProt P11532)
inactive: [1] 0.005 | [2] 0.025 | [3] 0.023 | [4] 0.047 | [5] -0.04 | [6] -0.004 | [7] 0.103 | [8] 0.006 | [9] 0.006 | [10] 0.029 | [11] 0.001 | [12] 0 | [13] -0.011 | [14] 0.015 | [15] 0.004 | [16] 0.014 | [17] -0.055 | [18] -0.028 | [19] 0.004 | [20] -0.001

DNAJC3 (UniProt Q13217)
inactive: [1] -0.016 | [2] 0.009 | [3] 0.006 | [4] 0.023 | [5] -0.004 | [6] 0.082 | [7] 0.016 | [8] -0.076 | [9] 0.008 | [10] -0.109 | [11] 0.004 | [12] 0.073 | [13] 0.005 | [14] 0.021 | [15] -0.029 | [16] 0.044 | [17] 0.011 | [18] 0 | [19] 0.005 | [20] 0.026

DNM1L isoform 2 (UniProt O00429)
inactive: [1] -0.053 | [2] 0.001 | [3] -0.132 | [4] -0.141 | [5] -0.146 | [6] -0.012 | [7] -0.044 | [8] -0.06 | [9] 0.057 | [10] 0.086 | [11] -0.108 | [12] -0.054 | [13] -0.013 | [14] 0.095 | [15] -0.205 | [16] 0.147 | [17] 0.018 | [18] 0.015 | [19] -0.066 | [20] 0.026

DMAP1 (UniProt Q9NPF5)
inactive: [1] 0.007 | [2] -0.005 | [3] -0.064 | [4] -0.002 | [5] 0.075 | [6] 0.001 | [7] 0.053 | [8] -0.112 | [9] -0.012 | [10] -0.034 | [11] 0.095 | [12] -0.045 | [13] 0.005 | [14] 0.008 | [15] -0.026 | [16] 0.039 | [17] 0.049 | [18] -0.106 | [19] -0.047 | [20] 0.055

DLG1 isoform 2 (UniProt Q12959)
inactive: [1] 0.025 | [2] -0.024 | [3] 0.007 | [4] -0.019 | [5] 0.001 | [6] -0.002 | [7] 0.017 | [8] -0.042 | [9] -0.007 | [10] -0.006 | [11] 0.039 | [12] 0.035 | [13] -0.013 | [14] -0.026 | [15] -0.002 | [16] 0.008 | [17] 0.034 | [18] 0.045 | [19] 0.006 | [20] -0.015

DOLPP1 (UniProt Q86YN1)
inactive: [1] 0.033 | [2] 0.016 | [3] -0.056 | [4] 0.026 | [5] 0.031 | [6] -0.028 | [7] -0.071 | [8] 0 | [9] -0.012 | [10] 0.036 | [11] -0.032 | [12] -0.054 | [13] -0.044 | [14] -0.012 | [15] -0.022 | [16] 0.03 | [17] 0.009 | [18] -0.016 | [19] -0.035 | [20] 0.03

DNAJC6 isoform 2 (UniProt O75061)
inactive: [1] 0.009 | [2] -0.01 | [3] -0.013 | [4] 0.086 | [5] -0.008 | [6] -0.004 | [7] -0.006 | [8] 0.058 | [9] 0.003 | [10] -0.001 | [11] -0.038 | [12] -0.002 | [13] 0.007 | [14] 0.005 | [15] 0.042 | [16] 0.06 | [17] -0.075 | [18] -0.013 | [19] 0.005 | [20] 0.048
